Consider 35 compounds from the supplement of paper PMC8256030.

The subject of experiment [1] is SARS-CoV-2 -1 PRF reporter mCherry-FSE-GFP(-1). In words: mCherry (red) intensity as percent of control; higher = higher upstream reporter expression. To be noted: 10 µM; 24 h; HEK293T.
For experiment [2] the test system is unchanged. In words: percent effect, decrease of GFP/mCherry ratio (-1 PRF reporter) relative to controls; higher = stronger frameshift inhibition. To be noted: 10 µM; 24 h; HEK293T.

Where “and” joins values, the source holds several entries; their conditions need not be identical. Equal values may be shown once. The list shows a part of the results. This data set is noisy: repeats of one test often differ as much as different tests do.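 HEK293T cells were given each compound shortly before transfection with a reporter in which red mCherry is followed by the SARS-CoV-2 frameshift element and then GFP in the −1 frame, so GFP appears only after frameshifting.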

The compound `CCOC(=O)C1=C(C)NC(C)=C(C(=O)OCC)C1c1ccccc1/C=C/C(=O)OC(C)(C)C` [lacidipine] gave a mCherry in experiment [1] of 101%. Also, in experiment [2], the percent effect was -1.5%.

Compound `CC(C)(N)C(=O)N[C@H](COCc1ccccc1)C(=O)N1CCC2(CC1)CN(S(C)(=O)=O)c1ccccc12` [ibutamoren] registered a mCherry in experiment [1] of 101%. Further, in experiment [2], the percent effect is -3.49%.

With `O=C(Nc1ccc(Cl)cc1)Nc1ccc(Cl)c(Cl)c1` [triclocarban], in experiment [1], the mCherry amounted to 35.1%. In addition, the percent effect in experiment [2] is -13.6%.

`C[C@@H]1[C@H](O)[C@@H](C)/C=C/C=C/C=C/C=C/C=C/C=C/C=C/[C@H](O[C@@H]2O[C@H](C)[C@@H](O)[C@H](N)[C@@H]2O)C[C@@H]2O[C@](O)(C[C@@H](O)C[C@@H](O)[C@H](O)CC[C@@H](O)C[C@@H](O)CC(=O)O[C@H]1C)C[C@H](O)[C@H]2C(=O)O`: in experiment [1], the mCherry was determined as 72.7%. Also, in experiment [2], the percent effect is -2.49%.

`COc1ccc(Cl)cc1C(=O)NCCc1ccc(S(=O)(=O)NC(=O)NC2CCCCC2)cc1` [Glyburide]: in experiment [1], the mCherry worked out at 94.5%. For the same compound, the percent effect in experiment [2] is -6.04%.

In turn, `COc1cc(OC)c(C(=O)CCCN2CCCC2)c(OC)c1` came in with a mCherry in experiment [1] of 83.2%. For the same compound, the percent effect in experiment [2] is -1.14%.

Regarding `CC#C[C@]1(O)CC[C@H]2[C@@H]3CCC4=CC(=O)CCC4=C3[C@@H](c3ccc(N(C)C)cc3)C[C@@]21C` [mifepristone], in experiment [1], the mCherry is 77.1% and 96.5%. Further, in experiment [2], the percent effect is -3.6% and 1.42%.

In experiment [1], `CC1=C(/C=C/C(C)=C/C=C/C(C)=C/CO)C(C)(C)CCC1` had a mCherry of 112%. In addition, the percent effect in experiment [2] worked out at 0.083%.

`CCOC(=O)C1=C(C)NC(C)=C(C(=O)OCC)C1c1cccc2nonc12` [darodipine] showed a mCherry in experiment [1] of 96.1%. The percent effect in experiment [2] stood at 1.91%.

`C[C@H](CS)C(=O)N1CCC[C@H]1C(=O)O` [captopril]: in experiment [1], the mCherry was 103% and 93.1%. Also, the percent effect in experiment [2] is 0.369% and 1.99%.

On to `C=CCn1c(=O)n([C@@H]2O[C@H](CO)[C@@H](O)[C@H]2O)c2nc(N)[nH]c(=O)c21` [loxoribine], for which the mCherry in experiment [1] was found to be 95.2%. In addition, in experiment [2], the percent effect is -3.18%.

`CC1CS(=O)(=O)CCN1/N=C/c1ccc([N+](=O)[O-])o1` (stereo not given) [nifurtimox] registered a mCherry in experiment [1] of 92.3%. The percent effect in experiment [2] was -7.4%.

`CN(C)CCO/N=C(/C=C/c1ccc(O)cc1)c1ccccc1F` [eplivanserin]: the mCherry in experiment [1] is 106%. Further, the percent effect in experiment [2] is -9.92%.

`CN1CCN(CC(=O)N2c3ccccc3C(=O)Nc3cccnc32)CC1` [pirenzepine]: in experiment [1], the mCherry was 98.3% and 119%. Also, the percent effect in experiment [2] was -5.67% and 2.85%.

`C[C@@H]1C/C=C/C=C/C=C/C=C/[C@H](O[C@@H]2O[C@H](C)[C@@H](O)[C@H](N)[C@@H]2O)C[C@@H]2O[C@](O)(C[C@@H](O)C[C@H]3O[C@@H]3/C=C/C(=O)O1)C[C@H](O)[C@H]2C(=O)O` [Natacyn]: in experiment [1], the mCherry turned out to be 106%. Besides, in experiment [2], the percent effect is -5.38%.

Take `CNC(=O)c1c(I)c(NC(C)=O)c(I)c(C(=O)O)c1I` [iotalamic acid]: in experiment [1], the mCherry was 119%. Also, the percent effect in experiment [2] was 0.834%.

`Cc1c(C(=O)NCCO)[n+]([O-])c2ccccc2[n+]1[O-]` [olaquindox]: the mCherry in experiment [1] was determined as 71.8%. Besides, the percent effect in experiment [2] was -4.81%.

For the compound `NCC(=O)CCC(=O)O`, the mCherry in experiment [1] amounted to 85.1%. In addition, the percent effect in experiment [2] was -4.56%.

In experiment [1], `CS(=O)(=O)c1ccc([C@@H](O)[C@@H](CF)NC(=O)C(Cl)Cl)cc1` showed a mCherry of 94.1%. The percent effect in experiment [2] is -0.497%.

Consider `COc1ccc(CCNCC(O)COc2cccc(C)c2)cc1OC` (stereo not given) [bevantolol], for which, in experiment [1], the mCherry was found to be 108%. In addition, the percent effect in experiment [2] was -4.79%.

Regarding `O=C1CN(/N=C/c2ccc(-c3ccc([N+](=O)[O-])cc3)o2)C(=O)N1`, the mCherry in experiment [1] is 113%. The percent effect in experiment [2] was -3.85%.

Regarding `Cc1cnc(NC(=O)C2=C(O)c3ccccc3S(=O)(=O)N2C)s1` [meloxicam], in experiment [1], the mCherry was found to be 93.2%. The percent effect in experiment [2] was -1.62%.

On to `CCCCC1C(=O)NN(c2ccccc2)C1=O` (stereo not given) [mofebutazone], for which the mCherry in experiment [1] amounted to 52.1%. Further, in experiment [2], the percent effect is -1.02%.

`CC(O)(P(=O)(O)O)P(=O)(O)O`: in experiment [1], the mCherry came out at 102%. The percent effect in experiment [2] was -7.17%.

`NC(=O)N[C@@H](CCC(=O)O)C(=O)O` showed a mCherry in experiment [1] of 85.5%. Further, the percent effect in experiment [2] is -5.5%.

The compound `OCC(S)CS` (stereo not given) [dimercaprol] registered a mCherry in experiment [1] of 65.3%. In addition, the percent effect in experiment [2] is -3.57%.

On to `CCCC(C)(COC(N)=O)COC(=O)NC(C)C` (stereo not given) [carisoprodol], for which, in experiment [1], the mCherry is 95.6% and 90%. Moreover, the percent effect in experiment [2] is 1.45% and -1.95%.

For `NCCS(=O)(=O)O` [taurine], the mCherry in experiment [1] came out at 86.1%. Further, the percent effect in experiment [2] is -1.92%.

On to `C[C@]12CCC(=O)C=C1CC[C@@H]1[C@@H]2[C@@H](O)C[C@@]2(C)[C@H]1CC[C@]2(O)C(=O)COC(=O)CCC(=O)O`, for which, in experiment [1], the mCherry came to 112%. For the same compound, the percent effect in experiment [2] was -2.58%.

In experiment [1], `CC(=O)Nc1ccc(OCC(O)CNC(C)C)cc1` (stereo not given) [practolol] registered a mCherry of 103%. In experiment [2], the percent effect was -4.14%.

In turn, `CC(NN)c1ccccc1` (stereo not given) [mebanazine] gave a mCherry in experiment [1] of 68.7%. The percent effect in experiment [2] is -2.46%.

On to `CCN(CC)CCCC(C)Nc1cc(OC)cc2cccnc12` (stereo not given) [pamaquine], for which the mCherry in experiment [1] was determined as 76.4%. Besides, the percent effect in experiment [2] is -1.11%.

For the compound `CN1CCN(C2=Nc3ccccc3Oc3ccc(Cl)cc32)CC1`, in experiment [1], the mCherry turned out to be 131%. In addition, the percent effect in experiment [2] is -10.5%.

In the case of `OC(CCN1CCCCC1)(c1ccccc1)C1CC2C=CC1C2` (stereo not given) [biperiden], the mCherry in experiment [1] turned out to be 105%. The percent effect in experiment [2] was -0.105%.

`CC(C)(Oc1ccc(Cl)cc1)C(=O)O` [clofibric acid]: in experiment [1], the mCherry was determined as 87%. Further, the percent effect in experiment [2] was -0.642%.
